{
  "source": "paper PMC8050390",
  "key": {"[1]": {"biological_target": "GST fusion protein of the M3R third intracellular loop (ICL3) (UniProt P20309)", "assay": "pull-down; GST fusion proteins tethered to glutathione beads (MagneGST Pull-Down System), incubated with total lysates of HEK293 cells expressing GFP–Rab43; 20 mM Tris HCl pH 7.5, 140 mM NaCl, 1% Nonidet P-40, 0.5% BSA, 10% glycerol, overnight at 4 °C; immunoblot with GFP antibodies; only the target purified"}, "[2]": {"biological_target": "T1, GST fusion protein of the α2B-AR third intracellular loop (ICL3) (UniProt P19328)", "T1 sequence": "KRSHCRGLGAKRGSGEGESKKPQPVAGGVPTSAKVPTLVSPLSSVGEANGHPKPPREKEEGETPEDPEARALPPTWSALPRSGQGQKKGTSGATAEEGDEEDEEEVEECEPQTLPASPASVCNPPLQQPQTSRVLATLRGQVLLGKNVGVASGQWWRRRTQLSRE", "assay": "pull-down; GST fusion proteins tethered to glutathione beads (MagneGST Pull-Down System), incubated with total lysates of HEK293 cells expressing GFP–Rab43; 20 mM Tris HCl pH 7.5, 140 mM NaCl, 1% Nonidet P-40, 0.5% BSA, 10% glycerol, overnight at 4 °C; immunoblot with GFP antibodies; only the target purified"}, "[3]": {"biological_target": "venus-tagged α2B-adrenergic receptor (UniProt P19328)", "assay": "FRET or BRET; live SHSY5Y cells transfected with 250 ng Rluc-tagged Rab43 and 750 ng venus-tagged receptors; coelenterazine h; net BRET"}, "[4]": {"biological_target": "venus-tagged M3 muscarinic acetylcholine receptor (UniProt P20309)", "assay": "FRET or BRET; live SHSY5Y cells transfected with 250 ng Rluc-tagged Rab43 and 750 ng venus-tagged receptors; coelenterazine h; net BRET"}, "[5]": {"biological_target": "venus-tagged chimeric receptor M3-2B (M3R mutant containing the α2B-AR ICL3) (UniProt P20309)", "assay": "FRET or BRET; live SHSY5Y cells transfected with 250 ng Rluc-tagged Rab43 and 750 ng venus-tagged receptors; coelenterazine h; net BRET"}},
  "note": "These are yes or no findings as the source states them, for the method shown. Binding seen in cells or lysates may run through a third protein. Some binding calls cover weakened binding; strength is not graded here. Where a sequence is shown, tags or fusion partners need not be part of it.",
  "data": [
    {"binder": "GFP-tagged Rab43 (protein, UniProt Q86YS6 1-212) MAGPGPGPGDPDEQYDFLFKLVLVGDASVGKTCVVQRFKTGAFSERQGSTIGVDFTMKTLEIQGKRVKLQIWDTAGQERFRTITQSYYRSANGAILAYDITKRSSFLSVPHWIEDVRKYAGSNIVQLLIGNKSDLSELREVSLAEAQSLAEHYDILCAIETSAKDSSNVEEAFLRVATELIMRHGGPLFSEKSPDHIQLNSKDIGEGWGCGC", "values": [
      {"measurement": "binding", "setting": "[1]", "result": "binds weakly"},
      {"measurement": "binding", "setting": "[2]", "result": "binds"}
    ]},
    {"binder": "Rluc-tagged Rab43 (protein, UniProt Q86YS6 1-212) MAGPGPGPGDPDEQYDFLFKLVLVGDASVGKTCVVQRFKTGAFSERQGSTIGVDFTMKTLEIQGKRVKLQIWDTAGQERFRTITQSYYRSANGAILAYDITKRSSFLSVPHWIEDVRKYAGSNIVQLLIGNKSDLSELREVSLAEAQSLAEHYDILCAIETSAKDSSNVEEAFLRVATELIMRHGGPLFSEKSPDHIQLNSKDIGEGWGCGC", "values": [
      {"measurement": "binding", "setting": "[3]", "result": "binds"},
      {"measurement": "binding", "setting": "[4]", "result": "binds weakly"},
      {"measurement": "binding", "setting": "[5]", "result": "binds"}
    ]}
  ]
}
